Measured values published in article PMC8382911 (Molecular Biology and Evolution, 2021).
No constants are given. Whether binding was seen depends on the method and setting.

Target: Haloferax volcanii malate dehydrogenase (Haloferax volcanii) (UniProt Q9P9L2)
Assay: condition: only in 0.2 M KCl (protein at 0.1 mg/ml); AUC; sedimentation velocity, 20 °C, 0.1 mg/ml, 50 mM Tris pH 7.0, 0.2 M KCl, after 24 h incubation; both purified

B1: Haloferax volcanii malate dehydrogenase (enzyme, UniProt Q9P9L2 1-304, looked up)
chain: MTKVSVIGAAGTVGAAAGYNLALRDVCDELVFVDIPKMEDKTVGQAADTNHGIAYDSNTVVTQGGYEDTAGSDVVVITAGIPRQPGQTRIDLAGDNAPIMDDIGSSLAEYNDDFVSITTSNPVDLLNRHLYETGDRDRHKVIGFGGRLDSARFRYVLSQRFDVPVKNVDATILGEHGDAQVPVFSKVRVDGNDPAFSADEKEEILGDLQESAMDVIERKGATQWGPATGVAHMVEAVLHDTGEVLPGSLVLDGEFGYEDTAFGVPVKLGSNGIEEVVEWDLDDYEADLMDDAAEKLRDQYDEIA
notes: malate dehydrogenase (MalDH) of Haloferax volcanii; S6-S8; Tetramer in molar KCl; the oligomeric state depends on salt type and concentration (monomer in 0.2 M KCl); also called H. volc MalDH; MalDH of H. volcanii
In the case of B1, the binding is reported as “no binding”.
